Laboratory results: ChEMBL document CHEMBL3243918, “Synthesis and adrenergic beta-blocking activity of some 1,3-benzodioxole derivatives” (J Med Chem, 1977)

Assay: Antagonist activity at guinea pig atrial beta adrenergic receptor assessed as isometric contractions by force displacement transducer
Type: tissue-based, Cavia porcellus, Cardiac atrium

pA2: 8.2
Structure (SMILES): CC(C)NCC(O)COc1cccc2ccccc12 (stereo unspecified) [PROPRANOLOL]
